Measurements reported in PubChem BioAssay AID1053208 (Peter MacCallum Cancer Centre, 2014)

Screen: 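Synthetic lethal interactions between gene loss and doxorubicin in osteosarcoma cells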 (primary screen)
Cells: mouse osteosarcoma cells, early-passage culture from an engineered mouse model of fibroblastic bone tumour
Reagent: siRNA pool against mouse genes, 40 nM
Time to read-out: about 120 h (48 h before drug, then 72 h with drug)
Treatment: doxorubicin 100 nM for 72 h, roughly 30-40% inhibitory dose
Detection: 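Viability read as ATP luminescence after 72 h of 100 nM doxorubicin or none, duplicate wells averaged, scaled to non-targeting siRNA, then expressed as robust z-scores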
Direction: viability z-score with doxorubicin: higher = more viable cells under doxorubicin; viability z-score without drug: higher = more viable cells with knock-down alone
Call rule: 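Called active if knock-down leaves viability unchanged without drug (z within -2 to 2) but lowers it with doxorubicin (z at or under -2)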
Shown is one part, drawn at random, of about 17,000 reagents. 788 of them (4.7%) were called active. 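Calls rest on z-score classes alone; an extra cut-off of viability at most 70% of control was not applied to them.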 Unmarked entries are inactive. Not all columns of the deposit are shown. Reagent sequences are not shown.

| gene knocked down | combined z-score class | viability z-score with doxorubicin | viability z-score without drug |
| --- | --- | --- | --- |
| Mrps11 | no change with or without drug | 0.56 | -0.67 |
| Zfand1 | no change with or without drug | -1.01 | -0.34 |
| Hes2 | no change with or without drug | -0.45 | -0.17 |
| Actc1 | no change with or without drug | 0 | -0.67 |
| Zfp788 | no change with or without drug | 0.67 | 1.52 |
| Plcb1 | no change with or without drug | 0.34 | 0.67 |
| Prelp | high cell count without drug only | 1.35 | 2.19 |
| Styx | no change with or without drug | 0 | -0.34 |
| Gtf2h1 | no change with or without drug | 0.67 | -0.84 |
| Kcnj8 | no change with or without drug | 0.45 | 0.67 |
| Mcm3ap | no change with or without drug | -1.8 | -1.01 |
| Slc6a2 | no change with or without drug | 0.45 | 0.17 |
| Camk2a | no change with or without drug | 0 | -0.51 |
| Il23r | no change with or without drug | 0 | -0.17 |
| Pon1 | no change with or without drug | 1.01 | 1.18 |
| Kcnip1 | no change with or without drug | -0.34 | -0.67 |
| St3gal1 | no change with or without drug | 0.45 | -0.34 |
| KRT2-18 | low cell count with doxorubicin only (active) | -2.14 | -0.51 |
| Thap4 | high cell count without drug only | -0.45 | 2.02 |

3 of these entries, reformatted:
Pon1
- combined z-score class: no change with or without drug
- viability z-score with doxorubicin: 1.01
- viability z-score without drug: 1.18

Kcnip1
- combined z-score class: no change with or without drug
- viability z-score with doxorubicin: -0.34
- viability z-score without drug: -0.67

St3gal1
- combined z-score class: no change with or without drug
- viability z-score with doxorubicin: 0.45
- viability z-score without drug: -0.34

The results go on:
| gene knocked down | combined z-score class | viability z-score with doxorubicin | viability z-score without drug |
| --- | --- | --- | --- |
| Psrc1 | no change with or without drug | -1.12 | -0.17 |
| Wdr7 | no change with or without drug | -1.12 | -0.34 |
| Sbk1 | no change with or without drug | -0.34 | -0.17 |
| Gprc6a | high cell count with doxorubicin only | 2.25 | 1.18 |
| Or5p62 | no change with or without drug | -0.45 | -1.18 |
| Gnaz | high cell count without drug only | 0.22 | 2.02 |
| Bpnt2 | no change with or without drug | 0.22 | 0 |
| Mesp1 | no change with or without drug | 0.9 | 0.17 |
| Trpc6 | no change with or without drug | -1.35 | 0.17 |
| Sod2 | no change with or without drug | -0.22 | 0.51 |
| Ogfr | no change with or without drug | -0.56 | 0.17 |
| Nhlrc2 | no change with or without drug | 0.56 | 0.84 |
| Gzma | high cell count with and without drug | 2.02 | 2.02 |
| Klhl25 | no change with or without drug | 0.22 | -0.17 |
| Sgk1 | no change with or without drug | 0.34 | 0 |
